Measurements reported in article PMC9426488.
Results are given in words; binding and its absence hold for the method and conditions named. In cells and extracts the contact can be indirect. These calls come from enrichment with a bait or labelling near it, and not all partners need be listed.

Amino acid sequences for entries named in this document (tags omitted). A change or cut given only in a name is not applied to a line headed by its entry.
UniProt S8GNR6: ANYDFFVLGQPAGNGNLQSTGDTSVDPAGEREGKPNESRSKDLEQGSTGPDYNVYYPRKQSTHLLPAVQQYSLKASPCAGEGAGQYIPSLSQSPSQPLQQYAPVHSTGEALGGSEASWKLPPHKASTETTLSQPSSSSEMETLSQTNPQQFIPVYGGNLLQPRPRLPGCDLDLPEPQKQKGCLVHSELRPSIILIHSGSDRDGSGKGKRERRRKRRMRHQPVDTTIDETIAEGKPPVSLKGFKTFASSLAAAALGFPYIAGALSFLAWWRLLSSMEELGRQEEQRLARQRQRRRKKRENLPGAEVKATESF
UniProt Q8WUM4: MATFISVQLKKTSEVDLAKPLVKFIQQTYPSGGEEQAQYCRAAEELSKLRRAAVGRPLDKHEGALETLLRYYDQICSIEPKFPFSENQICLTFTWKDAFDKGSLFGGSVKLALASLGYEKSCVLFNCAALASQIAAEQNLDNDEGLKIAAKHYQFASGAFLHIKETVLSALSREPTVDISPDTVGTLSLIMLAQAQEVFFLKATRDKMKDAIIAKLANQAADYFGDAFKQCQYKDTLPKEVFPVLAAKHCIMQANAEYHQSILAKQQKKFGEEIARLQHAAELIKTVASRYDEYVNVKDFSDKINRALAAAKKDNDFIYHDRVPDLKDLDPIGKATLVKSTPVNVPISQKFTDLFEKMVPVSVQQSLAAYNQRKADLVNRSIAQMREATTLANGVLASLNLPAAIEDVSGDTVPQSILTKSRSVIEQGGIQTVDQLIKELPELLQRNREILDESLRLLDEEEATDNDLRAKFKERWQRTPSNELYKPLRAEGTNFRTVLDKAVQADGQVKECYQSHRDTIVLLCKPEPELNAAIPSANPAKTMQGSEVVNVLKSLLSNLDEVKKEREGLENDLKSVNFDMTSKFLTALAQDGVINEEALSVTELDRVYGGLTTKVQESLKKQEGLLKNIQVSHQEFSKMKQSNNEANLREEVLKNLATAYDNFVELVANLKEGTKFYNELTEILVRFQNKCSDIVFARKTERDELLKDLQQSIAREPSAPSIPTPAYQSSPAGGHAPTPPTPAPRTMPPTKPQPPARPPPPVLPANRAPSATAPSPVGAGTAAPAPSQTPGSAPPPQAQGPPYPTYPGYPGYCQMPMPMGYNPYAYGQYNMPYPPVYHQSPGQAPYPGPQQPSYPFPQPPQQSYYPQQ
UniProt Q99816: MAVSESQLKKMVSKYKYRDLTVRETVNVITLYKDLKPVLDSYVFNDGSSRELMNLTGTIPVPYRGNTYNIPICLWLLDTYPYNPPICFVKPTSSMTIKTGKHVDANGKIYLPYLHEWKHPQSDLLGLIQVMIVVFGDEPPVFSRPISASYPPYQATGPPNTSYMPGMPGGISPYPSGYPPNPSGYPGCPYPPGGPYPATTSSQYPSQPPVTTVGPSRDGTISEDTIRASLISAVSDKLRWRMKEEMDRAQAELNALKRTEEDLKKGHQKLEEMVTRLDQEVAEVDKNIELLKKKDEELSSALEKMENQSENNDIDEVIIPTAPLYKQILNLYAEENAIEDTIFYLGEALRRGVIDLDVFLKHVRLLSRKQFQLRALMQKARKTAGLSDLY
UniProt Q8NEZ2: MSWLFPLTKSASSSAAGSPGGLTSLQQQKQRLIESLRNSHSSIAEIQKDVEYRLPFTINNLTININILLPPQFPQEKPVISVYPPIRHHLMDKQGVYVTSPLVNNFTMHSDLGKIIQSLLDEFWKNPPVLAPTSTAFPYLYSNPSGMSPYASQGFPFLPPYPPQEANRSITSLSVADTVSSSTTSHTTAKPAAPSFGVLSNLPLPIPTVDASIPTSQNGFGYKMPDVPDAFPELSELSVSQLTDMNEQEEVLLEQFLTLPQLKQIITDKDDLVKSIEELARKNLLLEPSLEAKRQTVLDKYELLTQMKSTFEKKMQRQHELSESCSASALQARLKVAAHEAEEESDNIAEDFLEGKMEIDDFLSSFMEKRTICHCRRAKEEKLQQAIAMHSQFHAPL

Molecular target: TurboID-GRA64 fusion protein (3×HA-TurboID on the N terminus of endogenous GRA64) (Toxoplasma gondii) (UniProt S8GNR6)
Test: proximity labelling; TurboID-GRA64 parasites in human foreskin fibroblasts, bradyzoite growth conditions, 150 μM biotin for 3 days; RIPA lysate, streptavidin agarose, LC-MS/MS; untagged PruQ as control

| Molecule | binding |
| --- | --- |
| ALIX (from UniProt Q8WUM4 1-868) | binds |
| TSG101 (from UniProt Q99816 1-390) | binds |
| VPS37A (from UniProt Q8NEZ2 1-397) | binds |
| UBAP1 (protein, UniProt Q9NZ09 1-502) MASKKLGADFHGTFSYLDDVPFKTGDKFKTPAKVGLPIGFSLPDCLQVVREVQYDFSLEKKTIEWAEEIKKIEEAEREAECKIAEAEAKVNSKSGPEGDSKMSFSKTHSTATMPPPINPILASLQHNSILTPTRVSSSATKQKVLSPPHIKADFNLADFECEEDPFDNLELKTIDEKEELRNILVGTTGPIMAQLLDNNLPRGGSGSVLQDEEVLASLERATLDFKPLHKPNGFITLPQLGNCEKMSLSSKVSLPPIPAVSNIKSLSFPKLDSDDSNQKTAKLASTFHSTSCLRNGTFQNSLKPSTQSSASELNGHHTLGLSALNLDSGTEMPALTSSQMPSLSVLSVCTEESSPPNTGPTVTPPNFSVSQVPNMPSCPQAYSELQMLSPSERQCVETVVNMGYSYECVLRAMKKKGENIEQILDYLFAHGQLCEKGFDPLLVEEALEMHQCSEEKMMEFLQLMSKFKEMGFELKDIKEVLLLHNNDQDNALEDLMARAGAS | binds |
